Experimental findings from PubChem BioAssay AID210 (DTP/NCI, 2004) are described below.

Structures are written as SMILES. The list is a part of this screen's results and no random one: it is rich in T/C values a quarter to a half above the control, in often repeated tests (any T/C) and in doses without a T/C. Further doses and runs are listed elsewhere. T/C is the treated group as % of the vehicle group. Some entries give survivors of the animals treated and no T/C: the source holds a T/C of zero for them, seemingly a mark for toxic or unscored doses. Some doses without a T/C left all or most animals alive at the check, yet need not have been tolerated: survival well below the control is almost never listed, so the zero probably covers shortened survival too. Counts of survivors are from the toxicity check (mostly the fifth day) where no day follows; animals may have died later. Schedule codes are those of the source, taken here to give the interval after Q, in days (D) or hours (H), and the number of doses after X. Some entries hold several experiments; their values stand side by side, smallest first. Where survival is the endpoint, this PubChem deposit counts one and a half times the control or more as active, and values a quarter to a half above the control carry no call in these data; other NCI protocols may use other cut-offs. Some T/C values are followed by the survivors on the day toxicity was checked, most often the fifth; without a count, all were alive then.

The experiment relates to CD2F1 mice, ip Colon 26 adenocarcinoma, median survival T/C. Kind of experiment: NCI In Vivo Anticancer Drug Screen. Data for tumor model Colon 26 Adenocarcinoma (intraperitoneal) in CD2F1 (CDF1) mice. As to conditions: T/C endpoint: median survival time, higher T/C = longer survival. Here is the method: The antitumor activity of compounds was measured in mice bearing transplantable tumors. Survival or tumor size were measured and the results are expressed as the measurement made in the treated group (T) divided by the measurement made in the vehicle treated control group (C). The tumor model used in this assay is Colon 26 Adenocarcinoma (intraperitoneal) in CD2F1 (CDF1) mice

Where [1] appears, read: dose: 100.0 mg/kg/injection, schedule: Q04DX003 (ip), vehicle: saline with Tween-80.

As to `O=C(O)c1c2c(nc3ccccc13)Cc1ccccc1-2`, the T/C runs as follows: (dose: 50.0 mg/kg/injection, schedule: Q04DX002 (ip), vehicle: water) 138 % of control; (dose: 200.0 mg/kg/injection, schedule: Q04DX002 (ip), vehicle: water) 125 % of control [9 of 10 alive]. Further, the survivor count (dose: 400.0 mg/kg/injection, schedule: Q04DX002 (ip), vehicle: water) is listed as 4 of 10.

As to `O=Cc1ccc(C(Cl)(Cl)Cl)cc1`, the T/C under setting [1] is 126 % of control and the T/C (dose: 200.0 mg/kg/injection, schedule: Q04DX003 (ip), vehicle: saline with Tween-80) is 145 % of control. Besides, for the setting “dose: 400.0 mg/kg/injection, schedule: Q04DX003 (ip), vehicle: saline with Tween-80”, the survivor count is reported as 5 of 10.

For `C=C/C(C)=C/[C@H](C)C(=O)C[C@H](O)CC1CC(=O)NC(=O)C1`, under setting [1], the T/C was 127 % of control.

With `CCCCCCCCNc1cc2c3c(c1)CCCN3CCC2`, the survivor count reads like this: (dose: 12.0 mg/kg/injection, schedule: Q04DX003 (ip), vehicle: Klucel (hydroxypropylcellulose) (HPC)) 6 of 10; (dose: 24.0 mg/kg/injection, schedule: Q04DX003 (ip), vehicle: Klucel (hydroxypropylcellulose) (HPC)) 4 of 10.

Take `COc1cccc2c1C(=O)c1c(O)c3c(c(O)c1C2=O)C[C@@](O)(C(C)=O)C[C@@H]3OC1CC(O)C(O)C(C)O1` (some centres undefined): the T/C is 131 % of control (dose: 50.0 mg/kg/injection, schedule: Q07DX002 (iv), vehicle: saline) and 131 % of control (dose: 80.0 mg/kg/injection, schedule: Q07DX002 (iv), vehicle: saline). The survivor count (dose: 130.0 mg/kg/injection, schedule: Q07DX002 (iv), vehicle: saline) is given as 9 of 10.

As for `CN(C)c1nc(N(C)C)nc(N(C)C)n1`, the T/C was 95 and 101 % of control (dose: 20.0 mg/kg/injection, schedule: Q04DX003 (ip), vehicle: saline with Tween-80, evaluated on day 60); 93, 108, 111 % of control (dose: 20.0 mg/kg/injection, schedule: Q04DX003 (ip), vehicle: saline with Tween-80, evaluated on day 70); 99 and 101 % of control (dose: 40.0 mg/kg/injection, schedule: Q04DX003 (ip), vehicle: saline with Tween-80, evaluated on day 60); 98, 108, 110 % of control (dose: 40.0 mg/kg/injection, schedule: Q04DX003 (ip), vehicle: saline with Tween-80, evaluated on day 70); 103 and 105 % of control (dose: 80.0 mg/kg/injection, schedule: Q04DX003 (ip), vehicle: saline with Tween-80, evaluated on day 60); 95, 103, 118 % of control (dose: 80.0 mg/kg/injection, schedule: Q04DX003 (ip), vehicle: saline with Tween-80, evaluated on day 70). Also, the T/C was 107 and 112 % of control (dose: 160.0 mg/kg/injection, schedule: Q04DX003 (ip), vehicle: saline with Tween-80, evaluated on day 60); 96, 115, 118, 130 % of control (dose: 160.0 mg/kg/injection, schedule: Q04DX003 (ip), vehicle: saline with Tween-80, evaluated on day 70); 121 [9 of 10 alive] and 125 % of control (dose: 320.0 mg/kg/injection, schedule: Q04DX003 (ip), vehicle: saline with Tween-80, evaluated on day 60); 108 [9 of 10 alive] and 118 % of control [9 of 10 alive] (dose: 320.0 mg/kg/injection, schedule: Q04DX003 (ip), vehicle: saline with Tween-80, evaluated on day 70). Moreover, the survivor count was 1 of 10 and 10 of 10 (dose: 320.0 mg/kg/injection, schedule: Q04DX003 (ip), vehicle: saline with Tween-80); 10 of 10 (dose: 512.0 mg/kg/injection, schedule: Q04DX003 (ip), vehicle: saline with Tween-80); 6 of 10 (dose: 6400.0 mg/kg/injection, schedule: Q04DX003 (ip), vehicle: saline with Tween-80).

For the compound `CCCC(=O)OCc1cc(=O)n(C)c2c3c4c(cc12)c(C)cc(=O)n4CO3`, for the setting “dose: 50.0 mg/kg/injection, schedule: Q04DX003 (ip), vehicle: Klucel (hydroxypropylcellulose) (HPC)”, the T/C is 147 % of control.

Consider `CN(Cc1cnc2nc(N)nc(N)c2n1)c1ccc(C(=O)N[C@@H](CCC(=O)O)C(=O)O)cc1`, for which the survivor count (dose: 30.0 mg/kg/injection, schedule: Q07DX003 (ip), vehicle: sodium bicarbonate) is on record as 10 of 10; the survivor count (dose: 63.0 mg/kg/injection, schedule: Q07DX003 (ip), vehicle: sodium bicarbonate) is recorded as 9 of 10; the survivor count (dose: 90.0 mg/kg/injection, schedule: Q07DX003 (ip), vehicle: saline) was 10 of 10; the survivor count (dose: 90.0 mg/kg/injection, schedule: Q07DX003 (ip), vehicle: sodium bicarbonate) is recorded as 10 of 10.

Turning to `O=NN(CCCl)C(=O)NCCCl`, for the setting “dose: 2.0 mg/kg/injection, schedule: Q04DX003 (ip), vehicle: saline + alcohol”, the T/C was 125 % of control. Also, for the setting “dose: 32.0 mg/kg/injection, schedule: Q04DX003 (ip), vehicle: saline + alcohol”, the survivor count was 10 of 10.

With `COc1cc(NS(C)(=O)=O)ccc1Nc1c2ccccc2nc2ccccc12`, the T/C was 132 % of control (dose: 2.0 mg/kg/injection, schedule: Q04DX002 (ip), vehicle: other) and 136 % of control (dose: 4.0 mg/kg/injection, schedule: Q04DX003 (ip), vehicle: other).

For the compound `ClC(Cl)=C(Cl)Cl`, the survivor count runs as follows: (dose: 600.0 mg/kg/injection, schedule: Q04DX002 (ip), vehicle: other) 10 of 10; (dose: 1200.0 mg/kg/injection, schedule: Q04DX002 (ip), vehicle: other) 10 of 10.

As to `NCCc1ccc(O)c(O)c1`, the survivor count is reported as 6 of 10 (dose: 12.5 mg/kg/injection, schedule: Q04DX003 (ip), vehicle: saline); 6 of 10 (dose: 100.0 mg/kg/injection, schedule: Q04DX003 (ip), vehicle: saline); 8 of 10 (dose: 200.0 mg/kg/injection, schedule: Q04DX003 (ip), vehicle: saline); 6 of 10 (dose: 400.0 mg/kg/injection, schedule: Q04DX003 (ip), vehicle: saline).

As to `CCOC(=O)Nc1cc2c(c(N)n1)N=C(CN(C)c1ccccc1)CN2`, the T/C (dose: 3.12 mg/kg/injection, schedule: Q04DX003 (ip), vehicle: Klucel (hydroxypropylcellulose) (HPC)) is 137 % of control and the T/C (dose: 12.5 mg/kg/injection, schedule: Q04DX003 (ip), vehicle: Klucel (hydroxypropylcellulose) (HPC)) was 125 % of control. Also, under “dose: 100.0 mg/kg/injection, schedule: Q04DX003 (ip), vehicle: Klucel (hydroxypropylcellulose) (HPC)”, the survivor count is reported as 10 of 10.

As for `CC(=O)C1(O)Cc2c(O)c3c(c(O)c2C(OC2CC(N)C(O)C(C)O2)C1)C(=O)c1ccccc1C3=O` (centres undefined), the T/C by setting is: (dose: 3.7 mg/kg/injection, schedule: Q07DX002 (iv), vehicle: saline) 139 % of control; (dose: 540.0 micrograms/kg/injection, schedule: Q04DX003 (ip), vehicle: water) 125 % of control. The survivor count is, setting by setting: (dose: 6.0 mg/kg/injection, schedule: Q07DX002 (iv), vehicle: saline) 9 of 10; (dose: 1500.5 micrograms/kg/injection, schedule: Q04DX003 (ip), vehicle: water) 8 of 8.

Consider `CN(C)CCCNc1cccc2c1C(=O)c1cccc(NCCCN(C)C)c1C2=O`, for which the survivor count reads like this: (dose: 64.0 mg/kg/injection, schedule: Q01DX009 (ip), vehicle: saline) 9 of 10; (dose: 128.0 mg/kg/injection, schedule: Q01DX009 (ip), vehicle: saline) 7 of 10.
